PubChem BioAssay AID540276 (National Center for Advancing Translational Sciences (NCATS), 2011)
“And” between values parts separate entries of the source, which are not always exact repeats. Equal entries are not always repeated. About 5,400 (1.8%) of roughly 300,000 compounds were called active. This list was built around the results that the source calls inconclusive (neither active nor inactive); the mix of calls is not that of the screen. Calls come from the whole dose curve; tested in HEK293 cells. Potencies of inconclusive entries are doubtful fits and often do not repeat.
Potency is the fitted concentration of half-maximal effect.

Experiment: qHTS for inhibitors of binding or entry into cells for Marburg Virus
Conditions: Marburg virus pseudotyped entry inhibition, cell reporter; series mostly up to 37.8 µM
With `COc1ccc(OC)c(-c2cc(C3CCN(c4cc(Cl)nc(N)n4)CC3)[nH]n2)c1` the Potency was inconclusive: 22.4 µM [inhibitor, partial curve, poor fit]. For `CN(Cc1cccs1)c1nc(-c2cccnc2)nc2ccccc12`, the Potency was inconclusive: 8.91 µM [inhibitor, partial curve, poor fit]. In the case of `N/C(Cc1cccc2ccccc12)=N\OC(=O)COc1ccccc1`, the Potency is reported as “inactive”. In the case of `COC(=O)C(C)(C(=O)OC)c1ccc(C(F)(F)F)cc1[N+](=O)[O-]`, the Potency is reported as inconclusive: 6.31 µM [activator, full curve, poor fit]. For `O=C(NN=C1CCCCCC1)c1ccc(Cl)s1`, the Potency was inconclusive: 35.5 µM [activator, single point]. With `Cc1ccc(S(=O)(=O)NCC(=O)N(CC(=O)NCC2CCCO2)c2ccc(Cl)cc2)cc1` (configuration not stated) the Potency was inconclusive: 35.5 µM [inhibitor, single point]. With `Cc1cc(Nc2ccc([N+](=O)[O-])cc2)nc2ccccc12` the Potency was “inactive”. With `COc1ccc(C(OC(=O)c2ccco2)C(=O)NC(C)(C)C)cc1` (configuration not stated) the Potency was “inactive”. In the case of `CN(Cc1ccc(F)cc1)C(=O)c1cccc(S(=O)(=O)NCc2ccccc2)c1`, the Potency is reported as inconclusive: 35.5 µM [inhibitor, single point]. With `O=C(O)CP(=O)(O)c1ccc(Cl)cc1` the Potency was inconclusive: 35.5 µM [activator, partial curve, poor fit]. In the case of `COc1ccc(OC)c(NC(=O)C2CCCN(S(=O)(=O)c3c(C)noc3C)C2)c1` (configuration not stated), the Potency is reported as inconclusive: 35.5 µM [inhibitor, single point]. With `CCCCS(=O)(=O)C(=C1Nc2ccccc2N1)S(=O)(=O)CCCC` the Potency was “inactive”. In the case of `CCN(CC)CCNC(=O)c1ccc(-n2c(C)cc3c2CCCC3=O)cc1`, the Potency is reported as inconclusive: 35.5 µM [inhibitor, partial curve, poor fit]. For `O=C(/C=C/c1ccccc1)NC(N1CCOCC1)C(Cl)(Cl)Cl` (configuration not stated), the Potency was “inactive”. With `CN(/N=C/c1ccc(Br)o1)C1=NS(=O)(=O)c2ccccc21` the Potency was “inactive”. For `CC(=O)NCCc1ccc(S(=O)(=O)Nc2ccc3c(c2)OCCO3)cc1`, the Potency was “inactive”. With `Cc1cc(C)nc(SCc2nc(N)nc(-c3ccccc3O)n2)n1` the Potency was inconclusive: 0.116 µM [inhibitor, full curve, poor fit]. For `CC1CN(Cc2c(O)ccc3c(=O)c(-c4ccccc4)coc23)CC(C)O1` (configuration not stated), the Potency was “inactive”. In the case of `CCc1c(C#N)c(N)nc(SCC(=O)OCc2ccccc2)c1C#N`, the Potency is reported as “inactive”. In the case of `CCC(=O)N1CCN(c2ccccc2NC(=O)Cc2ccc(Cl)cc2)CC1`, the Potency is reported as inconclusive: 20.6 µM [inhibitor, single point]. In the case of `CC(=O)c1sc(NC(=O)C2CSC3(C)CCC(=O)N23)nc1-c1ccccc1` (configuration not stated), the Potency is reported as inconclusive: 35.5 µM [activator, single point]. In the case of `Cc1ccccc1C(=O)N1CCN(c2ccc([N+](=O)[O-])c(NCc3cccnc3)c2)CC1`, the Potency is reported as inconclusive: 1.26 µM [inhibitor, single point]. In the case of `CN1CCc2nc(SCC(=O)Nc3ccc(OC(F)(F)F)cc3)c(C#N)c(-c3cccs3)c2C1`, the Potency is reported as inconclusive: 29.1 µM [inhibitor, single point]. In the case of `COc1cc(CNC(=O)CCCCCCC(C)C)ccc1O`, the Potency is reported as inconclusive: 6.51 µM [activator, partial curve, poor fit] and inconclusive: 35.5 µM [activator, single point]. For `CCOC(=O)c1c(CSC(=N)N)n(-c2ccc(C)cc2)c2cc(Br)c(OC(C)=O)cc12`, the Potency was “inactive”. In the case of `OCc1nc2ccccc2n1Cc1ccc(Cl)cc1`, the Potency is reported as “inactive”. For `COc1ccc2nc(C)cc(Nc3ccc(N4CCOCC4)cc3)c2c1`, the Potency was inconclusive: 2.91 µM [inhibitor, full curve, poor fit]. In the case of `COC(=O)N/N=C/c1cn(Cc2ccccc2Cl)c2ccccc12`, the Potency is reported as “inactive”. In the case of `COC(=O)c1ccccc1NC(=O)Cn1c(=O)n(CCCC(=O)NCc2ccccc2Cl)c(=O)c2ccccc21`, the Potency is reported as “inactive”. With `O=C1c2ccccc2CCCC12N=NCC2c1cccc2ccccc12` (configuration not stated) the Potency was inconclusive: 32.6 µM [inhibitor, single point]. For `CCn1cc(Cl)c(C(=O)Nc2c(C)nn(Cc3c(F)c(F)c(F)c(F)c3F)c2C)n1`, the Potency was “inactive”. In the case of `CCOc1ccc(/C=C/c2nc(C#N)c(NCCCN(C)C)o2)cc1`, the Potency is reported as “inactive and inconclusive: 14.1 µM [inhibitor, partial curve, poor fit]”. With `O=C1CCCCC1Nc1ccc2ccccc2c1` (configuration not stated) the Potency was active: 3.55 µM. In the case of `C=CCNc1nc(-c2sc(NC(=O)CC)nc2C)cs1`, the Potency is reported as inconclusive: 2.82 µM [inhibitor, full curve, poor fit]. For `O=C(COC(=O)c1ccco1)NCC1CCCCC1`, the Potency was “inactive”. For `Cc1nc(Nc2ccccc2)sc1-c1ccccc1`, the Potency was inconclusive: 8.91 µM [inhibitor, single point]. For `COc1ccc2c(c1)O/C(=C\c1ccccc1C)C2=O`, the Potency was “inactive”. With `N#Cc1ccccc1OCC(=O)OCC(=O)N1CCN(C(=O)c2ccco2)CC1` the Potency was inconclusive: 6.31 µM [inhibitor, single point]. With `CCC(C)N(C(=O)CCC(=O)Nc1cc(C)on1)C(C(=O)NC(C)(C)C)c1ccccc1Cl` (configuration not stated) the Potency was “inactive”. With `CC(C)NC(=O)NC1C2CC3CC(C2)CC1C3` (configuration not stated) the Potency was “inactive”. In the case of `COC(=O)C1NN=C(C(=O)c2ccc(Br)cc2)C1c1cccc(Br)c1` (configuration not stated), the Potency is reported as inconclusive: 5.62 µM [activator, single point]. With `Cc1cc(OCCN2CCOCC2)ccc1[N+](=O)[O-]` the Potency was “inactive”. For `O=C(CSc1ccc(-c2nc3ccccc3[nH]2)cn1)N1CCN(C(=O)c2ccco2)CC1`, the Potency was inconclusive: 23.1 µM [inhibitor, single point]. With `Cc1cc(/C=C(\C#N)C(=O)N2CCCCC2)cc(C)c1O` the Potency was inconclusive: 31.6 µM [inhibitor, single point]. In the case of `O=C(NCc1cccs1)c1ccncc1`, the Potency is reported as “inactive”. For `Cn1c(=O)c2c(nc(CN3CCN(c4ccccc4)CC3)n2Cc2ccccc2Cl)n(C)c1=O`, the Potency was inconclusive: 14.6 µM [inhibitor, partial curve, poor fit]. For `CC(=O)c1cccc(Nc2cc(C)nc3c(C)cc(C)cc23)c1`, the Potency was inconclusive: 20.6 µM [inhibitor, single point]. For `Cc1ccc(S(=O)(=O)/N=C(\CCl)N2CCOCC2)cc1`, the Potency was inconclusive: 35.5 µM [inhibitor, single point]. For `CC1CCCC(C)N1C(=O)Cn1c(SCC(=O)NCc2ccc3c(c2)OCO3)nc2ccccc21` (configuration not stated), the Potency was “inactive”. For `O=C(Nc1ccn(Cc2ccccc2F)n1)c1ccc(COc2ccccc2Cl)cc1`, the Potency was inconclusive: 11.2 µM [inhibitor, partial curve, poor fit]. With `CCOP(=O)(OCC)C(Nc1cccc(C(F)(F)F)c1)c1ccc(F)cc1` (configuration not stated) the Potency was inconclusive: 8.2 µM [inhibitor, partial curve, poor fit]. With `CN(C)C(CNC(=O)c1ccc2c(=O)n(-c3ccccc3F)c(=S)[nH]c2c1)Cc1ccccc1` (configuration not stated) the Potency was inconclusive: 35.5 µM [inhibitor, single point]. With `COc1ccc(NC(=O)C(C)NS(=O)(=O)c2ccc(NC(C)=O)cc2)cc1Cl` (configuration not stated) the Potency was inconclusive: 4.11 µM [activator, full curve, poor fit]. With `O=C(COc1ccccc1)c1ccccc1` the Potency was inconclusive: 2.82 µM [activator, full curve, poor fit]. For `CCCC(=O)Nc1cc(-c2nnc3c4ccccc4c(C)nn23)ccc1C`, the Potency was “inactive”. With `COc1cc2ccccc2cc1C(=O)N(CCN(C)C)c1nc2ccc(C)cc2s1` the Potency was active: 4.47 µM. In the case of `O=C1c2ccccc2C(=O)N1CCCc1nc(-c2ccccn2)no1`, the Potency is reported as “inactive”. With `c1sc2[n+](c1C13CC4CC(CC(C4)C1)C3)CCS2` the Potency was inconclusive: 35.5 µM [inhibitor, single point]. For `CCOc1cc(NC(=S)NCC(C)C)c(OCC)cc1NC(=O)c1cccs1`, the Potency was inconclusive: 6.51 µM [inhibitor, partial curve]. In the case of `O=C(O)c1cccc(COc2ccc(CO)cc2Cl)c1`, the Potency is reported as inconclusive: 0.259 µM [inhibitor, full curve, poor fit]. With `CSC1=N/C(=C\c2ccc(F)cc2)C(=O)S1` the Potency was inconclusive: 2.51 µM [activator, partial curve, poor fit]. With `CCOC(=O)Cn1c(CN2CCN(c3ccc(OC)cc3)CC2)nc2c1c(=O)[nH]c(=O)n2C` the Potency was “inactive”. In the case of `CCOCCn1c(=O)c2c(nc3n2CCCN3Cc2ccccc2)n(C)c1=O`, the Potency is reported as “inactive”. For `CCCOC(=O)c1ccc(OCC(O)CN2C(=O)NC(C)(C)C2=O)cc1` (configuration not stated), the Potency was inconclusive: 29.1 µM [activator, single point]. With `O=C(CSc1n[nH]c(=O)n1-c1cccnc1)N1CCOCC1` the Potency was “inactive”. In the case of `CCCN(CCC)CC(=O)NCC1(c2ccccc2)CCOCC1`, the Potency is reported as “inactive”. For `Cn1c(=O)n(C)c2cc(N3CCOCC3)c(NS(=O)(=O)c3ccc(Cl)cc3)cc21`, the Potency was “inactive”. For `COc1ccccc1N1CCN(C(=O)CN(CCc2ccccc2)S(C)(=O)=O)CC1`, the Potency was inconclusive: 14.6 µM [inhibitor, single point]. For `Cc1nn(C2CCS(=O)(=O)C2)c(Cl)c1/C=C/C(=O)OCC(=O)c1cc(C)n(-c2ccc(F)cc2)c1C` (configuration not stated), the Potency was inconclusive: 29.1 µM [inhibitor, single point]. For `O=C(Nc1ccc(F)cc1)OC1CN2CCC1CC2` (configuration not stated), the Potency was “inactive”. In the case of `CCC(C)NC(=O)Nc1ccc(Br)cc1` (configuration not stated), the Potency is reported as inconclusive: 6.31 µM [activator, single point]. For `CCOc1ccccc1NC(=S)NCc1cccn1C`, the Potency was “inactive”.
